Results on six compounds are retold here after PMC10779311, “Antileishmanial Activity, Toxicity and Mechanism of Action of Complexes of Sodium Usnate with Lanthanide Ions: Eu(III), Sm(III), Gd(III), Nd(III), La(III) and Tb(III)” (International Journal of Molecular Sciences, 2023).

This series deals with NIH/3T3 fibroblasts. Briefly: Cytotoxicity in mammalian cells (sulforhodamine B). The series is classed as cell-based. Conditions: IC50 in NIH/3T3 fibroblasts/IC50 on intracellular amastigotes. The protocol: The cytotoxic effect of compounds 1–7 was evaluated on NIH/3T3 fibroblasts obtained from the Rio de Janeiro Cell Bank (Duque de Caxias, Brazil). Fibroblasts were seeded at […] in 96-well plates. After 24 h of fixation, cells were incubated for 48 h with 1–7 at 2.5–250 µg·mL^−1, in three replicates. Cell growth was evaluated using the sulforhodamine B colorimetric method, and the optical with absorbances read on the PT-READER microplate instrument (Spectramax 190, Molecular Devices, Sunnyvale, CA, USA) at 540 nm. […] The growth inhibition percentage-GI (%) of each test sample was calculated in Microsoft Office Excel 2007 software. IC50 was determined graphically in the Microcal Origin Version 6.00 program. The selectivity index (SI) was calculated as the ratio between the cytotoxicity on cells (IC50) and the activity on the parasite forms (IC50).
In the case of `CC(=O)C1=C([O-])C=C2Oc3c(C(C)=O)c(O)c(C)c(O)c3C2(C)C1=O.CC(=O)C1=C([O-])C=C2Oc3c(C(C)=O)c(O)c(C)c(O)c3C2(C)C1=O.CC(=O)C1=C([O-])C=C2Oc3c(C(C)=O)c(O)c(C)c(O)c3C2(C)C1=O.O.O.O.[Eu+3]` (stereo not drawn) [EuL3·3H2O 4], the “SI (Ama.)” value is 6.73.

For `CC(=O)C1=C([O-])C=C2Oc3c(C(C)=O)c(O)c(C)c(O)c3C2(C)C1=O.CC(=O)C1=C([O-])C=C2Oc3c(C(C)=O)c(O)c(C)c(O)c3C2(C)C1=O.CC(=O)C1=C([O-])C=C2Oc3c(C(C)=O)c(O)c(C)c(O)c3C2(C)C1=O.O.O.O.[Gd+3]` (stereo not drawn) [GdL3·3H2O 3], the “SI (Ama.)” value is reported as 4.81.

In the case of `CC(=O)C1=C([O-])C=C2Oc3c(C(C)=O)c(O)c(C)c(O)c3C2(C)C1=O.CC(=O)C1=C([O-])C=C2Oc3c(C(C)=O)c(O)c(C)c(O)c3C2(C)C1=O.CC(=O)C1=C([O-])C=C2Oc3c(C(C)=O)c(O)c(C)c(O)c3C2(C)C1=O.O.O.O.[La+3]` (stereo not drawn) [LaL3·3H2O 7], the “SI (Ama.)” value is on record as 2.38.

`CC(=O)C1=C([O-])C=C2Oc3c(C(C)=O)c(O)c(C)c(O)c3C2(C)C1=O.CC(=O)C1=C([O-])C=C2Oc3c(C(C)=O)c(O)c(C)c(O)c3C2(C)C1=O.CC(=O)C1=C([O-])C=C2Oc3c(C(C)=O)c(O)c(C)c(O)c3C2(C)C1=O.O.O.O.[Nd+3]` (stereo not drawn) [NdL3·3H2O 5]: the “SI (Ama.)” value is given as 6.97.

`CC(=O)C1=C([O-])C=C2Oc3c(C(C)=O)c(O)c(C)c(O)c3C2(C)C1=O.CC(=O)C1=C([O-])C=C2Oc3c(C(C)=O)c(O)c(C)c(O)c3C2(C)C1=O.CC(=O)C1=C([O-])C=C2Oc3c(C(C)=O)c(O)c(C)c(O)c3C2(C)C1=O.O.O.O.O.[Sm+3]` (stereo not drawn) [SmL3·4H2O 2]: the “SI (Ama.)” value stood at 3.82.

Regarding `CC(=O)C1=C([O-])C=C2Oc3c(C(C)=O)c(O)c(C)c(O)c3C2(C)C1=O.CC(=O)C1=C([O-])C=C2Oc3c(C(C)=O)c(O)c(C)c(O)c3C2(C)C1=O.CC(=O)C1=C([O-])C=C2Oc3c(C(C)=O)c(O)c(C)c(O)c3C2(C)C1=O.O.O.[Tb+3]` (stereo not drawn) [TbL3·2H2O 6], the “SI (Ama.)” value is 2.32.
